Assay results as given in the supplement of paper PMC7580552.
Structures can show the parent of a compound that is named as a salt. The list shows a part of the results. Plates or batches differ in their baseline, so values are only roughly comparable.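 The strain is a K-12 laboratory model grown without shaking in 96-well plates, and biofilm is the crystal violet stain retained on the wells, read as absorbance. Drugs were picked as candidate specific biofilm blockers when they cut staining strongly but slowed free-floating growth by less than 70%.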

Each molecule was assayed on Escherichia coli W3110 (assay: biofilm formation (crystal violet staining) relative to untreated control; higher = more biofilm). Settings: 10 µM; 20-24 h; 30 °C; TB.

| SMILES | biofilm formation |
| --- | --- |
| O=C(C1CCCCC1)N1CC(=O)N2CCc3ccccc3C2C1 (stereo unspecified) [Praziquantel] | 62% |
| CC(C(=O)O)c1ccc2c(c1)Cc1cccnc1O2 (stereo unspecified) [Pranoprofen] | 67% |
| CSc1ccc2c(c1)C(N1CCN(C)CC1)Cc1ccccc1S2 (stereo unspecified) [Methiothepin maleate] | 59% |
| Cc1c(C)c2c(c(C)c1O)CCC(C)(COc1ccc(CC3SC(=O)NC3=O)cc1)O2 (stereo unspecified) [Troglitazone] | 82% |
| COC(c1ccccc1)(c1ccccc1)[C@H](Oc1nc(C)cc(C)n1)C(=O)O [Ambrisentan] | 78% |
| COc1ccc([C@@H]2CC(=O)c3c(O)cc(O[C@@H]4O[C@H](CO[C@@H]5O[C@@H](C)[C@H](O)[C@@H](O)[C@H]5O)[C@@H](O)[C@H](O)[C@H]4O)cc3O2)cc1O [Hesperidin] | 82% |
| CC(C)(C(=O)O)c1ccc(C(O)CCCN2CCC(C(O)(c3ccccc3)c3ccccc3)CC2)cc1 (stereo unspecified) [Fexofenadine hydrochloride] | 79% |
| Cc1cc(C(C)(C)C)c(O)c(C)c1CC1=NCCN1 [Oxymetazoline hydrochloride] | 77% |
| CN(C)CCCN1c2ccccc2Sc2ccccc21 [Promazine hydrochloride] | 79% |
| NS(=O)(=O)c1cc(C(=O)O)cc(N2CCCC2)c1Oc1ccccc1 [Piretanide] | 65% |
| O=C(O)c1cccnc1Nc1cccc(C(F)(F)F)c1 [Niflumic acid] | 110% |
| COc1ccc(C(Cl)=C(c2ccc(OC)cc2)c2ccc(OC)cc2)cc1 [Chlorotrianisene] | 56% |
| Cc1oncc1C(=O)Nc1ccc(C(F)(F)F)cc1 [Leflunomide] | 80% |
| CCOC(=O)[C@H](CCc1ccccc1)N[C@@H](C)C(=O)N1Cc2ccccc2C[C@H]1C(=O)O [Quinapril hydrochloride] | 48% |
| CC(CCc1ccccc1)NCC(O)c1ccc(O)c(C(N)=O)c1 (stereo unspecified) [Labetalol hydrochloride] | 47% |
| CN1C(C)(C)CCCC1(C)C [Pempidine] | 60% |
| Cc1onc(-c2c(Cl)cccc2Cl)c1C(=O)N[C@@H]1C(=O)N2[C@@H]1SC(C)(C)[C@@H]2C(=O)O [Dicloxacillin sodium salt hydrate] | 110% |
| CN(C)/N=N/c1[nH]cnc1C(N)=O [Dacarbazine] | 88% |
| CC[N+](C)(C)Cc1ccccc1Br [Bretylium tosylate] | 58% |
| C[N+](C)(C)CCCCCC[N+](C)(C)C [Hexamethonium dibromide dihydrate] | 68% |
| Cc1cc2c(cc1S(N)(=O)=O)S(=O)(=O)CCC2 [Meticrane] | 77% |
| NCCNCCNCCNCCN [Tetraethylenepentamine pentahydrochloride] | 43% |
| COC(=O)Nc1nc2cc(C(=O)c3ccccc3)ccc2[nH]1 [Mebendazole] | 68% |

Taken from the entries so far (four entries):

| SMILES | biofilm formation |
| --- | --- |
| O=C(C1CCCCC1)N1CC(=O)N2CCc3ccccc3C2C1 (stereo unspecified) [Praziquantel] | 62% |
| CC(C(=O)O)c1ccc2c(c1)Cc1cccnc1O2 (stereo unspecified) [Pranoprofen] | 67% |
| CSc1ccc2c(c1)C(N1CCN(C)CC1)Cc1ccccc1S2 (stereo unspecified) [Methiothepin maleate] | 59% |
| Cc1c(C)c2c(c(C)c1O)CCC(C)(COc1ccc(CC3SC(=O)NC3=O)cc1)O2 (stereo unspecified) [Troglitazone] | 82% |

The list goes on:

| SMILES | biofilm formation |
| --- | --- |
| CC(C)c1ccc2oc3nc(N)c(C(=O)O)cc3c(=O)c2c1 [Amlexanox] | 70% |
| CC1(C)S[C@@H]2[C@H](NC(=O)[C@H](NC(=O)N3CCNC3=O)c3ccccc3)C(=O)N2[C@H]1C(=O)O [Azlocillin sodium salt] | 38% |
| Nc1nc(Cl)nc2c1ncn2[C@H]1C[C@H](O)[C@@H](CO)O1 [Cladribine] | 69% |
| CN[C@@H]1[C@H](O[C@H]2[C@H](O[C@H]3[C@H](O)[C@@H](O)[C@H](N=C(N)N)[C@@H](O)[C@@H]3N=C(N)N)O[C@@H](C)[C@]2(O)C=O)O[C@@H](CO)[C@H](O)[C@H]1O [Streptomycin sulfate] | 39% |
| OCCOCCN1CCN(C2=Nc3ccccc3Sc3ccccc32)CC1 [Quetiapine hemifumarate] | 84% |
| COc1cccc2c1C(=O)c1c(O)c3c(c(O)c1C2=O)C[C@@](O)(C(=O)CO)C[C@@H]3O[C@H]1C[C@H](N)[C@H](O)[C@H](C)O1 [Doxorubicin hydrochloride] | 69% |
| CCC(=O)O[C@@H](O[P@](=O)(CCCCc1ccccc1)CC(=O)N1C[C@H](C2CCCCC2)C[C@H]1C(=O)O)C(C)C [Fosinopril] | 101% |
| CC1(C)S[C@@H]2[C@H](NC(=O)[C@H](N)c3ccc(O)cc3)C(=O)N2[C@H]1C(=O)O [Amoxicillin] | 49% |
| CCCCC(=O)O[C@H]1CC[C@H]2[C@@H]3CCc4cc(O)ccc4[C@H]3CC[C@]12C [Estradiol Valerate] | 85% |
| N=C(N)c1ccc(OCCCCCOc2ccc(C(=N)N)cc2)cc1 [Pentamidine isethionate] | 91% |
| Cn1c(NCCN(CCO)CCCc2ccc([N+](=O)[O-])cc2)cc(=O)n(C)c1=O [Nifekalant] | 73% |
| Fc1ccc(C(c2ccc(F)cc2)N2CCN(C/C=C/c3ccccc3)CC2)cc1 [Flunarizine dihydrochloride] | 72% |
| COc1ccc(CCN(C)CCCC(C#N)(c2ccc(OC)c(OC)c2)C(C)C)cc1OC (stereo unspecified) [Verapamil hydrochloride] | 73% |
| Cc1onc(-c2ccccc2)c1-c1ccc(S(N)(=O)=O)cc1 [Valdecoxib] | 81% |
| CCCc1cc(=O)[nH]c(=S)[nH]1 [Propylthiouracil] | 61% |
| C[N+]1(CCCCC[N+]2(C)CCCC2)CCCC1 [Pentolinium bitartrate] | 61% |
| Oc1ncnc2[nH]ncc12 [Allopurinol] | 75% |
| CCCCCCC[N+](CC)(CC)CCCCc1ccc(Cl)cc1 [Clofilium tosylate] | 68% |
| CNCCCC1c2ccccc2C=Cc2ccccc21 [Protriptyline hydrochloride] | 62% |
| C[C@]12CCC(=O)C=C1CC[C@@H]1[C@@H]2[C@@H](O)C[C@@]2(C)[C@H]1CC[C@]2(O)C(=O)CO [Hydrocortisone base] | 71% |
| CC(=O)[C@H]1CC[C@H]2[C@@H]3CCC4=CC(=O)CC[C@]4(C)[C@H]3CC[C@]12C [Progesterone] | 90% |
| NC(Cc1cc(I)c(Oc2cc(I)c(O)c(I)c2)c(I)c1)C(=O)O (stereo unspecified) [Thyroxine (L)] | 100% |
| CN(C)CC/C=C1/c2ccccc2Sc2ccc(Cl)cc21 [Chlorprothixene hydrochloride] | 69% |
